Measurements: patent US20070275911A1, “Targeted Drug-Formaldehyde Conjugates and Methods of Making and Using the Same” (priority 2003, published 2007)

By UniProt entry, the sequences of proteins in these tests, tags left out. Residues count along the entry.
UniProt P05106, 27-788 limits assumed: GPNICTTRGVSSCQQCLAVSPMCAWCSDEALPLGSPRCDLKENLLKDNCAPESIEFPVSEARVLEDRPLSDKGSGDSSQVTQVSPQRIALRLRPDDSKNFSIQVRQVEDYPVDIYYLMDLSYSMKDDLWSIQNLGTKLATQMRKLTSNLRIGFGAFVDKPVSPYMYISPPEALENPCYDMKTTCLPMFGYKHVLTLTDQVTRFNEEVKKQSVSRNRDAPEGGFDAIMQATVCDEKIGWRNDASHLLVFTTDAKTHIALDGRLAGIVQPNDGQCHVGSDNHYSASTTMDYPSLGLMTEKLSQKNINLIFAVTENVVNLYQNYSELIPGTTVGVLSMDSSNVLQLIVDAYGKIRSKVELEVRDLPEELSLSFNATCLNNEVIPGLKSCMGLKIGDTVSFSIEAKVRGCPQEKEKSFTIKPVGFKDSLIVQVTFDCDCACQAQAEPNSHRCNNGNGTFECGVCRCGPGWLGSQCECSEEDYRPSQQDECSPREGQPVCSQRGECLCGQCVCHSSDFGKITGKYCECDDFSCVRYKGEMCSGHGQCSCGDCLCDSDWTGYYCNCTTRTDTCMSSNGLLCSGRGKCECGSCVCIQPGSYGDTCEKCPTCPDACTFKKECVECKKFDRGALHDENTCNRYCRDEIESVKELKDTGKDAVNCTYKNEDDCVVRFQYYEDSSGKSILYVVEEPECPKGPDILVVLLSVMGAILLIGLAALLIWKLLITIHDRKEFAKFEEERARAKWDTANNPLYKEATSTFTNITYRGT
UniProt P06756, 31-889 limits assumed: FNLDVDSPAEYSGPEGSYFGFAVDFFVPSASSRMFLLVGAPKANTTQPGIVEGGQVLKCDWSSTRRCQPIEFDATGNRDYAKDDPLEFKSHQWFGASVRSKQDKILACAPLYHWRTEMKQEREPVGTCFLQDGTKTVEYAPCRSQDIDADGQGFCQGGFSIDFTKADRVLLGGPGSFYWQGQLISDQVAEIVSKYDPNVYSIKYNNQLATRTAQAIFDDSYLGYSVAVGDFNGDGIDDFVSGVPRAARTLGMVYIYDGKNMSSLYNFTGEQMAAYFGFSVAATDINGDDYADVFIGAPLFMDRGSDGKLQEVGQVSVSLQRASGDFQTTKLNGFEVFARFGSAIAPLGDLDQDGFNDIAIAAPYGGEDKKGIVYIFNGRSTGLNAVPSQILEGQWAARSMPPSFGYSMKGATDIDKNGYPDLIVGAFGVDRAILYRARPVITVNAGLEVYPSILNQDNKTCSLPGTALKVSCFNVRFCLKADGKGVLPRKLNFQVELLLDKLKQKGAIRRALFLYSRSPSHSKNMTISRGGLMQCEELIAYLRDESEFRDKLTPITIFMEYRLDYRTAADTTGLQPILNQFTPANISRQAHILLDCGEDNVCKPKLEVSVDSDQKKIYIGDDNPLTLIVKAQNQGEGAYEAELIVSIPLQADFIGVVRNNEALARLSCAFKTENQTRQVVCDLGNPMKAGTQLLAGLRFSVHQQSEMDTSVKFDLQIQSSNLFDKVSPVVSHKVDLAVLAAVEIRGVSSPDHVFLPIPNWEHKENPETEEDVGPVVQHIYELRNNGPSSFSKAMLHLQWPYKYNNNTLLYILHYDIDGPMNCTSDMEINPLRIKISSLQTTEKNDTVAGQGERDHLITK
UniProt P06756, 891-1048 partner limits assumed: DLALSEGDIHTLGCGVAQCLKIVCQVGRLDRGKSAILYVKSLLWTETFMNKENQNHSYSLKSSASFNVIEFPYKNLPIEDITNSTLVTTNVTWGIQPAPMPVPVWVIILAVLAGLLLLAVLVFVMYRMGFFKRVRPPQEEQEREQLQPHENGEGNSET

What was measured:
[1] = Water solubility and storage stability of RGD constructs; conditions: −80° C., TFA salt of N-Mannich base; tested form: TFA
MDA-MB-435 cells = test: Growth inhibition assay (Example 6); format: cell-based, human; conditions: read-out: IC50 for inhibition of cell growth (nM), treatment time, tested form: TFA
ανβ3 on MBA-MB-435 cells = ανβ3 on MBA-MB-435 cells (Homo sapiens, UniProt P05106+P06756); test: ανβ3 binding by flow cytometry with cyclic-(N-Me-VRGDf-NH)-Oregon Green; format: cell-based; conditions: absence of Mn2+, up to 100 nM

Structure (SMILES) | storage stability [1] | IC50 (MDA-MB-435 cells; 20 min treatment) | IC50 (MDA-MB-435 cells; 1 h treatment) | IC50 (MDA-MB-435 cells; 4 h treatment) | binding of dye to cells (ανβ3 on MBA-MB-435 cells)
COc1cccc2c1C(=O)c1c(O)c3c(c(O)c1C2=O)CC(O)(C(=O)CO)CC3OC1CC(NCNC(=O)c2cc(C=NOCC(=O)Nc3ccc(CC4NC(=O)C(CC(=O)O)NC(=O)CNC(=O)C(CCCNC(=N)N)NC(=O)C(C(C)C)N(C)C4=O)cc3)ccc2O)C(O)C(C)O1 (centres unmarked) | stable for months | 1000 nM | 250 nM | 90 nM | 
CC(C)[C@H]1C(=O)N[C@@H](CCCNC(=N)N)C(=O)NCC(=O)N[C@@H](CC(=O)O)C(=O)N[C@H](Cc2ccc(NC(=O)CONC(=O)c3ccc4c(c3)C(=O)OC43c4cc(F)c(O)cc4Oc4cc(O)c(F)cc43)cc2)C(=O)N1C |  |  |  |  | little binding of dye was observed

Read-outs that look alike come from different tables or passages of the source. The structures given here were assigned with low confidence; some may be wrong.
